The text below walks through data of patent US9896474B2, “(3A,9B,10A,13A,14B,17A,20S,22E)-ergosta-5,7,22-trien-3-ol and methods of preparing and using the same” (priority 2014, dated 2018).

The subject of data set [1] is H22 liver cancer model. The experiment in a line: Antitumor experiment against H22 tumor bearing mice. In kind it is in vivo. As to conditions: 10 days, x ± s. An excerpt: Antitumor Experiment of C310-6 Against H22 Tumor Bearing Mice
H22 tumor bearing mice were adopted to observe the effect of the anti-liver cancer of five classes of mixtures.
H22 tumor bearing mouse inoculated with the tumor for 8-13 days and in good condition was killed by dislocation. Body surface of the mouse was disinfected by alcohol. The tumors were separated from the mouse and placed in sterile petri dish containing normal saline in a sterile environment (super clean bench). The tumors were cut into small piece and transferred to a tissue homogenizer, the normal saline was added with a volume ratio of the tumor piece to the normal saline being 1:3, a resulting homogenate was put into a 50 mL sterile centrifuge tube. 0.2 mL of the homogenate was inoculated to right axilla of each C57BL/6 mouse by 1 mL syringe. The tumor cell suspension was prepared in the sterile environment (the super clean bench), and the serial operations from separation of the abdominal dropsy of the tumor to the tumor inoculation were accomplished in 60 min
(§1) Oral agent of C310-6: a certain weight of C310-6 sample was placed in a mortar, and Tween-80 having a volume of 2% of a certain volume of a solvent was added and fully ground. Thereafter, the normal saline was added and fully stirred to form a solution. Solutions having a concentration of the C310-6 sample of 24 mg/mL, 8 mg/mL, and 2.7 mg/mL were prepared.
(§2) Oral agent of CTX: CTX pill was removed from a film and a certain amount of the pill was placed in a mortar. A certain volume of normal saline was added, fully ground, and mixed to prepare a solution having a concentration of CTX to be 3.4 mg/mL.
(§3) 60 experimental mice were divided into 6 groups with each group having 10 mice, a half of the mice being female and another half of the mice being male. The groups are specifically as follows: 1) group administered with a low dose of C310-6 (27 mg/kg), 2) group administered with middle dose of C310-6 (80 mg/kg), 3) group administered with high dose of C310-6 (240 mg/kg), 4) group administered with CTX, 5) model group, and 6) blank control group. The above groups, except the model group and the blank control group, are administered with 0.3 mL of the drugs once a day after the injection of the tumor suspension, and the administration was lasted for 10 days. The model group and the blank control group are administered orally with equal volume of aqua solutions containing 2 v. % of Tween-80 for 10 days.
(§4) The weight and food intake of the mice were weighed and recorded every day, and a net weight of each mouse after tumor removal was calculated at the last time.
(§5) The separated tumor tissue was weighed, and the inhibition rate on the tumor growth was calculated according to the following equation: […]

The subject of data set [2] is Lewis lung cancer model. The experiment in a line: Anti-Lewis tumor experiment (Lewis lung cancer bearing mouse). In kind it is in vivo. Conditions: Lewis mice, 10 days, x ± s.
From the text: The purpose of the experiment was adopting the Lewis tumor bearing mouse model to observe the antitumor effect of C310-6.
Tumor bearing mouse inoculated with the tumor for 8-13 days and in good condition was killed by dislocation. Body surface of the mouse was disinfected by alcohol. The tumors were separated from the mouse and placed in sterile petri dish containing normal saline in a sterile environment (super clean bench). The tumors were cut into small piece and transferred to a tissue homogenizer, the normal saline was added with a volume ratio of the tumor piece to the normal saline being 1:3, a resulting homogenate was put into a 50 mL sterile centrifuge tube. 0.2 mL of the homogenate was inoculated to right axilla of each KM mouse by 1 mL syringe. The tumor cell suspension was prepared in the sterile environment (the super clean bench), and the serial operations from the tumor separation to the tumor inoculation were accomplished in 60 min
as §1, §2
as §3, with “0.2” for “0.3”
as §4, §5

On to `CC(C)[C@@H](C)/C=C/[C@H](C)[C@@H]1CC[C@@H]2C3=CC=C4C[C@H](O)CC[C@@]4(C)[C@@H]3CC[C@]21C` [C310-6, (3α,9β,10α,13α,14β,17α,20S,22E)-ergosta-5,7,22-trien-3-ol], for which the figures for the “Liver weight (g)” value in data set [1] (27 mg/kg oral once a day) and in data set [1] (80 mg/kg oral once a day) were 1.67 ± 0.53∘ g and 1.87 ± 0.52∘∘ g, respectively. Also, the “Liver weight” value in data set [1] (240 mg/kg oral once a day) is recorded as 1.57 ± 0.30 g; in data set [2] (27 mg/kg oral once a day), 0.12 ± 0.02 g; in data set [2] (80 mg/kg oral once a day) it was 0.12 ± 0.03 g; in data set [2] (240 mg/kg oral once a day), 0.13 ± 0.02 g.

For `O=P1(N(CCCl)CCCl)NCCCO1` (centres unmarked) [CTX, cyclophosphamide, reference compound], the “Liver weight” value in data set [1] (20 mg/kg oral once a day) is 1.26 ± 0.22 g; in data set [2] (20 mg/kg oral once a day) it was 0.12 ± 0.02 g.
